Values quoted from earlier work as cited in patent US10731195B2, “Methods for the enzymatic modification of steviol glycosides, modified steviol glycosides obtainable thereby, and the use thereof as sweeteners” (Rijksuniversiteit Groningen, priority 2015, dated 2020).
For at least one compound, name, drawing or mass did not settle the structure. Some of these results come from one statement about several compounds together.

Conditions: cited from earlier work; for sweetness relative to sucrose: sucrose 0.4% water solution

| SMILES | bitterness compared to Stevioside | sweetness relative to sucrose |
| --- | --- | --- |
| C=C1C[C@@]23CC[C@H]4[C@@](C)(CCC[C@@]4(C)C(=O)O[C@@H]4O[C@H](CO)[C@@H](O)[C@H](O)[C@H]4O)[C@@H]2CC[C@]1(O[C@@H]1O[C@H](CO)[C@@H](O)[C@H](O[C@@H]2O[C@H](CO)[C@@H](O)[C@H](O)[C@H]2O)[C@H]1O[C@@H]1O[C@H](CO)[C@@H](O)[C@H](O)[C@H]1O)C3 [Rebaudioside A, 13-({β-D-glucopyranosyl-(1→2)-[β-D-glucopyranosyl-(1→3)-]β-D-glucopyranosyl}oxy)ent-kaur-16-en-19-oic acid α-D-glucopyranosyl ester] | less bitter | 200-300 times |
| C=C1C[C@@]23CC[C@H]4[C@@](C)(CCC[C@@]4(C)C(=O)O[C@@H]4O[C@H](CO)[C@@H](O)[C@H](O)[C@H]4O[C@@H]4O[C@H](CO)[C@@H](O)[C@H](O)[C@H]4O)[C@@H]2CC[C@]1(O[C@@H]1O[C@H](CO)[C@@H](O)[C@H](O)[C@H]1O[C@@H]1O[C@H](CO)[C@@H](O)[C@H](O)[C@H]1O)C3 [Rebaudioside E] | reduced bitterness | – |
| C=C1C[C@@]23CC[C@H]4[C@@](C)(CCC[C@@]4(C)C(=O)O[C@@H]4O[C@H](CO)[C@@H](O)[C@H](O)[C@H]4O)[C@@H]2CC[C@]1(O[C@@H]1O[C@H](CO)[C@@H](O)[C@H](O)[C@H]1O[C@@H]1O[C@H](CO)[C@@H](O)[C@H](O)[C@H]1O)C3 [Stevioside] | – | 200-300 times |
